Values of other authors, collected in patent US8066971B2, “Targeting pulmonary epithelium using ADRP” (Los Angeles Biomedical Reseach Institute at Harbor UCLA …, priority 2005, dated 2011).
For at least one compound, name, drawing or mass did not settle the structure.

Tested on: LIF-ATII cell co-culture
Details: LIF-ATII cell co-culture system; cited from earlier work

For `C[C@@H]1C[C@H]2[C@@H]3CCC4=CC(=O)C=C[C@]4(C)[C@@]3(F)[C@@H](O)C[C@]2(C)[C@@]1(O)C(=O)CO` [dexamethasone], the “LIF triacylglycerol incorporation into ATII cell satPC” value is listed as “selectively stimulate”.
